A short description of this test: qHTS Assay for Lipid Storage Modulators in Drosophila S3 Cells.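 On cell number change: cells counted by Cell Tracker Red CMTPX staining in the red channel.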 Conditions: BODIPY lipid droplet fluorescence, 18-24 h; for cell number change: measured here: cell count max response, cells fed with added oleic acid. The gist of the method:
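Laser-scanning cytometry quantifies lipid droplet accumulation (500–530 nm total intensity; droplet/cell object ratio) in oleic acid-fed (400 uM added) Drosophila S3 cells treated with a concentration series. 20 uM Triacsin C defined 100% inhibition.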

The mark [1] stands for this setting: measured here: lipid fluorescence (Fed channel) AC50, cells fed with added oleic acid.
Setting [2] is: measured here: cell number channel AC50, cells fed with added oleic acid.

This is one part of the list. Further columns of the screen follow, without active or inactive calls. Compounds called inactive in the main read-out are mostly missing here. The note in brackets gives the kind of curve behind each potency; many fits are weak.

For orientation: AC50 means the concentration at which the activity in the assay is half-maximal. `CCCCNS(=O)(=O)c1ccc(OC)cc1`: the cell number change amounted to 1.42%. Besides, the AC50 under setting [1] is 2.91 µM [falling, partial curve, poor fit].
In the case of `CCc1cc2c(=O)c(-n3cnc4ccccc43)coc2cc1O`, the cell number change was -22.1%.
On to `CCOc1ccc2[nH]c(SCC(=O)OC)c([N+](=O)[O-])c2c1`, for which the cell number change is -12.5%.
On to `Cc1ccc(C)n1NC(=O)c1ccccc1O`, for which the cell number change is -5.13%. The AC50 under setting [1] was 7.31 µM [rising, partial curve, poor fit].
For `O=C(CSc1nnc2ccc(-c3ccccn3)nn12)Nc1ccccc1F`, the cell number change turned out to be 21.6%. Besides, under setting [1], the AC50 is 1.03 µM [rising, full curve].
Regarding `O=C1OCc2ccc(NC(=O)c3sccc3Cl)cc21`, the cell number change stood at 28.4%. The AC50 under setting [1] is 0.517 µM [rising, partial curve, poor fit].
As for `COC(=O)c1c(NC(=O)c2ccccc2)sc(Cc2ccccc2)c1C`, the AC50 runs as follows: under setting [2], 0.82 µM [rising, single point]; under setting [1], 0.291 µM [rising, full curve].
Regarding `C(=N\Nc1nncc2ccccc12)/c1ccccn1`, the cell number change came out at 6.67%.
Regarding `COc1ccccc1CNC(=O)CCS(=O)(=O)c1cccs1`, under setting [2], the AC50 was 0.58 µM [falling, single point].
On to `Cc1nnc(SCC(=O)Nc2ccc(C(N)=O)cc2)n1-c1ccccc1`, for which the cell number change is 13.2%.
With `O=C(CN1C(=O)C2C3C=CC(C3)C2C1=O)OCC(=O)c1ccc(Br)cc1` (stereo unspecified), the cell number change is -15.5%.
As to `COc1ccc(OCC(=O)N(Cc2ccc(C)o2)C2CCS(=O)(=O)C2)cc1` (stereo unspecified), the cell number change stood at 6.65%. The AC50 under setting [1] was 0.103 µM [falling, full curve, poor fit].
Regarding `COc1ccc(C2C(C(=O)N3CCOCC3)=C(C)NC3=C2C(=O)CC(C)(C)C3)cc1O` (stereo unspecified), the cell number change was -5.83%.
Regarding `CCOC(=O)C1CCN(C(=O)CSc2cc(=O)n(CC)c3ccccc23)CC1`, the AC50 reads like this: under setting [2], 1.46 µM [rising, partial curve]; under setting [1], 0.291 µM [rising, partial curve, poor fit].
As for `CC(C)C(O)(CC#CCN1CCCC1)c1ccccc1` (stereo unspecified), the cell number change is -45.9%. Also, the AC50 under setting [2] is 6.51 µM [falling, full curve, poor fit].
Regarding `O=C(NCCCn1ccnc1)c1cc(C2CC2)on1`, the cell number change came out at 19%. Under setting [1], the AC50 is 5.8 µM [rising, full curve].
Regarding `O=C(c1cc2cc(Br)ccc2oc1=O)N1CCN(c2ccccn2)CC1`, the cell number change came to 1.37%.
`Cc1nnc(SCC(=O)c2ccc(C(C)C)cc2)s1`: the cell number change stood at 3.08%. Besides, the AC50 under setting [1] was 29.1 µM [falling, single point].
Turning to `Cc1ccc(S(=O)(=O)N2CCc3ccccc3C2)cc1C`, the cell number change is -24.1%.
Regarding `Cc1c(CC(=O)N2CCN(C(=O)C3COc4ccccc4O3)CC2)c(=O)oc2c(O)c(O)ccc12` (stereo unspecified), the cell number change is -30.1%. For the same molecule, under setting [2], the AC50 is 5.8 µM [falling, single point]. Besides, the AC50 under setting [1] is 6.51 µM [falling, partial curve, poor fit].
`COc1ccc(NC(=O)CN(C)Cc2c(F)cccc2Cl)cc1S(=O)(=O)N1CCCCC1`: the cell number change was 37.4%. In addition, the AC50 under setting [2] is 1.3 µM [rising, full curve]. Further, under setting [1], the AC50 is 0.651 µM [rising, full curve, poor fit].
For `Cn1c(=O)c2c(ncn2CC(=O)N2CCOCC2)n(C)c1=O`, the cell number change was -30.8%. The AC50 under setting [2] is 0.651 µM [falling, full curve, poor fit]. The AC50 under setting [1] was 23.1 µM [falling, partial curve, poor fit].
As for `O=C(c1cn(-c2ccccc2)nc1-c1cccnc1)N1CCN(S(=O)(=O)c2ccccc2F)CC1`, the cell number change is -27.4%.
As to `c1cc(-c2nnc3sc(C4CCCCC4)nn23)ccn1`, the cell number change was -9.22%.
Regarding `CCOC(=O)C1=CC[C@]2(C)c3c(c4ccccc4n3C)C(=O)C1N2C`, the cell number change turned out to be 11%. Further, the AC50 under setting [1] is 29.1 µM [falling, single point].
`COc1ccc(-c2noc(CCC(=O)NCCCN3CCC(Cc4ccccc4)CC3)n2)cc1`: the cell number change is -141%. Moreover, the AC50 under setting [2] was 3.66 µM [falling, partial curve]. For the same molecule, the AC50 under setting [1] is 0.58 µM [falling, single point].
On to `Cc1cc(=O)nc2c3ccccc3n(CC(=O)NC3CCCCC3)n12`, for which the cell number change was -15.7%. Under setting [1], the AC50 is 2.06 µM [falling, partial curve].
As for `CSCCC(NS(=O)(=O)c1ccc(Cl)cc1)C(=O)OCC(=O)NC12CC3CC(CC(C3)C1)C2` (stereo unspecified), the cell number change was -52.5%. Moreover, under setting [2], the concentration at half-maximal activity (AC50) was 20.6 µM [falling, partial curve, poor fit].
For the molecule `COc1ccc(OC(=O)C(C)N2C(=O)c3ccccc3C2=O)cc1` (stereo unspecified), the cell number change was determined as 18.5%. Also, under setting [1], the AC50 is 0.58 µM [rising, single point].
As to `Oc1ccc(CN2CCCCC2)nc1-c1ccccc1`, the cell number change is -1.33%. The AC50 under setting [1] was 6.51 µM [rising, single point].
For the molecule `Cc1cc(C)nc(NC(=O)c2cc(-c3ccc(C)s3)nc3ccccc23)c1`, the cell number change worked out at 14.1%. In addition, the AC50 under setting [2] was 2.31 µM [rising, single point]. Also, the AC50 under setting [1] is 2.31 µM [rising, full curve].
For the molecule `CCCC(=O)NC(Nc1ccc(S(=O)(=O)Nc2cc(C)on2)cc1)(C(=O)OCC)C(F)(F)F` (stereo unspecified), the cell number change came to 2.61%. Moreover, the AC50 under setting [1] is 0.164 µM [rising, full curve, poor fit].
Consider `COC(=O)c1c(C(=O)OC)c(-c2ccc(C(C)(C)C)cc2)n2c1CS(=O)C2` (stereo unspecified), for which the AC50 is, setting by setting: under setting [2], 4.11 µM [rising, single point]; under setting [1], 3.26 µM [rising, partial curve].
For `N#Cc1ccccc1NC(=O)CSc1nnc(-c2ccccc2O)n1-c1ccccc1`, the cell number change is -6.17%. In addition, under setting [1], the AC50 is 23.1 µM [rising, partial curve, poor fit].
Turning to `Cc1ccc(-c2nn3c(C)nnc3s2)cc1NCc1c(F)cccc1Cl`, the cell number change is -33.5%. In addition, under setting [2], the AC50 was 29.1 µM [falling, single point]. For the same molecule, under setting [1], the AC50 is 1.46 µM [rising, full curve, poor fit].
`CN1CCN(CCNC(=O)c2cn(Cc3ccccc3F)nn2)CC1`: the cell number change was 15.4%.
In the case of `CCOC(=O)C1CCN(C(=O)CSCCSCC(=O)N2CCC(C(=O)OCC)CC2)CC1`, the cell number change was 39.4%. In addition, the AC50 under setting [2] was 4.11 µM [rising, partial curve, poor fit]. Moreover, the AC50 under setting [1] is 16.4 µM [rising, partial curve].
`CCCCn1c(N)c(N(CC(C)C)C(=O)c2ccc(-c3ccc([N+](=O)[O-])cc3)o2)c(=O)[nH]c1=O`: the cell number change is -9.43%. Moreover, under setting [1], the AC50 is 16.4 µM [falling, single point].
Consider `CCCc1cc(=O)oc2cc(OCc3ccc(C(=O)O)o3)ccc12`, for which the cell number change is 14.5%. Further, the AC50 under setting [1] is 6.51 µM [falling, single point].
Take `Cc1ccn2cc(C(=O)Nc3ccc4c(c3)OCCO4)nc2c1`: the cell number change is -10.7%. Further, the AC50 under setting [1] was 5.8 µM [rising, single point].
Consider `O=C(C[n+]1ccccc1)N/N=C/c1ccco1`, for which the cell number change was -40.7%. Further, the AC50 under setting [2] was 0.92 µM [falling, partial curve].
Consider `COc1cc2ccccc2cc1C(=O)NCC(c1cccs1)N(C)C` (stereo unspecified), for which the cell number change turned out to be 4.78%. Also, the AC50 under setting [1] is 2.06 µM [rising, full curve].
`COc1ccc(CCC(=O)OCC(=O)N2CCN(S(=O)(=O)c3ccc(C)cc3C)CC2)cc1`: the cell number change was -6.36%. The AC50 under setting [1] was 29.1 µM [rising, single point].
As for `COc1cc(C(C(=O)NC(C)(C)C)N(C(=O)CNC(=O)c2cccs2)c2ccccc2)cc(OC)c1OC` (stereo unspecified), the cell number change is -8.03%. Further, the AC50 under setting [1] is 0.731 µM [falling, single point].
With `CCC(CO)N=CC1=C(O)C(C(=O)c2ccccc2)CCC1=O` (stereo unspecified), the cell number change amounted to 59.6%. Also, the AC50 under setting [2] was 11.6 µM [rising, partial curve, poor fit].
Turning to `Cc1ccc(-c2nc3cccnc3s2)cc1NS(=O)(=O)c1cccs1`, the cell number change amounted to 17.2%.
`CC/C(=N\NC(=O)CSCc1ccccc1Cl)c1ccc2c(c1)OCCO2`: the cell number change is 31.6%. Besides, the AC50 under setting [2] was 25.9 µM [rising, single point]. In addition, under setting [1], the AC50 was 0.326 µM [rising, single point].
Regarding `CC(=O)Nc1ccc(OCC(=O)c2cc(C)ccc2C)cc1`, the cell number change was determined as 13.4%. In addition, under setting [1], the AC50 is 4.11 µM [rising, partial curve].
Turning to `CN(CC(=O)Nc1ccc(F)cc1)C(=O)COC(=O)/C=C/c1ccc(OC(F)F)cc1`, the cell number change is 74.5%. The AC50 under setting [2] is 29.1 µM [rising, single point].
Consider `CCOc1ccccc1NC(=O)CSc1nnc(-c2cnccn2)n1C`, for which the cell number change came to 70.4%. Besides, under setting [1], the AC50 was 29.1 µM [rising, single point].
Regarding `CN(C)CCN(C(=O)c1ccc2ccccc2c1)c1nc2c(F)cc(F)cc2s1`, the cell number change was determined as 18.7%. Also, the AC50 under setting [1] is 6.51 µM [falling, single point].
For the molecule `COc1ccc(C(C)=O)cc1COC(=O)c1ccc2ccccc2n1`, the cell number change came to 13.6%.
With `O=C(NC1CCCC1)c1cccc(NC(=O)c2ccco2)c1`, the cell number change is -99.2%. The AC50 under setting [2] is 20.6 µM [falling, single point]. The AC50 under setting [1] was 16.4 µM [falling, single point].
Consider `CCCCN(Cc1ccco1)S(=O)(=O)c1ccc(-c2ccc(=O)[nH]n2)s1`, for which the cell number change was -42.4%. The AC50 under setting [2] was 32.6 µM [falling, partial curve, poor fit]. Also, the AC50 under setting [1] was 1.84 µM [falling, partial curve, poor fit].
Turning to `CCOC(=O)C1CCN(CC(O)COc2ccc(C(C)(C)CC)cc2)CC1` (stereo unspecified), the cell number change is -2.12%. Besides, the AC50 under setting [1] is 32.6 µM [falling, single point].
In the case of `CCCc1c(C(=O)OCC)sc(N)c1C#N`, the cell number change was found to be 8.27%. Moreover, under setting [1], the AC50 was 9.2 µM [rising, partial curve].
Regarding `COc1ccc(C2CC(c3cccc(C)c3)n3ncnc3N2)cc1` (stereo unspecified), the AC50 under setting [2] was 0.13 µM [rising, full curve, poor fit].
Regarding `O=C(CCC(=O)N1CCN(c2ccc(F)cc2)CC1)c1ccc(Cl)cc1`, the cell number change is 13%. Also, the AC50 under setting [2] was 6.51 µM [rising, single point].
With `CCCC(=O)n1nc(-c2ccc(Cl)cc2)nc1SC`, the AC50 under setting [2] was 2.31 µM [falling, single point] and the AC50 under setting [1] was 6.51 µM [falling, partial curve, poor fit].
On to `Cc1cc(OCc2nnc(SC(C)C(=O)O)n2-c2ccccc2)ccc1Cl` (stereo unspecified), for which the cell number change came to 4.69%. Further, under setting [2], the AC50 is 0.00517 µM [rising, full curve, poor fit]. Also, the AC50 under setting [1] was 0.58 µM [rising, single point].
